Experimental data taken from patent publication EP0534568B1.
No constants are given. Whether binding was seen depends on the method and setting. Some results given as binding are weak or reduced against the parent protein; the word gives no strength.

Sequences of proteins named here, by UniProt entry; tags and fusion partners are left off. A change or cut given only in a name is not applied to a line headed by its entry. A line that says so, or that is headed by a name, gives the form on record, which may keep a tag or linker.
hGH mutant Arg134→Leu (P01241, form named): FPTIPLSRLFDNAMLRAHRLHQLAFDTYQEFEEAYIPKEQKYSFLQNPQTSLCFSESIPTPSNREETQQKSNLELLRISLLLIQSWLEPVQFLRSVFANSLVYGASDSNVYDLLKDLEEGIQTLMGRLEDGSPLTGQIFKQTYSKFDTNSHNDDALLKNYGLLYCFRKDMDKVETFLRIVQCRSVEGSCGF
hGH mutant Arg134→Ala (P01241, form named): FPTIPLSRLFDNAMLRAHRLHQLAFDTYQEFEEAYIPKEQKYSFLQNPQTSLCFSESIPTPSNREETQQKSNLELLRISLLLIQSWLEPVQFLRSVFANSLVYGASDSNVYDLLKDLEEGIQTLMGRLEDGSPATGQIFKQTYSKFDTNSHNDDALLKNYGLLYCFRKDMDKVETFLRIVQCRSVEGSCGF
hGH mutant Arg134→Thr (P01241, form named): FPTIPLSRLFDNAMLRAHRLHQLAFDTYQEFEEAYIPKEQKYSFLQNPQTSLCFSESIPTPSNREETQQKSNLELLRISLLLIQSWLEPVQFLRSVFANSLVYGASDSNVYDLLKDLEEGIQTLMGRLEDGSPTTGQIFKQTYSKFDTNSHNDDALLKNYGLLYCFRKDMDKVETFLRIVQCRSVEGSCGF
hGH mutant Arg134→Pro (P01241, form named): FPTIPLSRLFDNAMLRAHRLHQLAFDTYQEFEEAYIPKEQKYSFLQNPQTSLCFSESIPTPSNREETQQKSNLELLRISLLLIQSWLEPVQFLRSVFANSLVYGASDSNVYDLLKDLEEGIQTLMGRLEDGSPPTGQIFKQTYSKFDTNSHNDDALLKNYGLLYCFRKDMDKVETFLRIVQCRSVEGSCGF
hGH mutant Arg134→Phe (P01241, form named): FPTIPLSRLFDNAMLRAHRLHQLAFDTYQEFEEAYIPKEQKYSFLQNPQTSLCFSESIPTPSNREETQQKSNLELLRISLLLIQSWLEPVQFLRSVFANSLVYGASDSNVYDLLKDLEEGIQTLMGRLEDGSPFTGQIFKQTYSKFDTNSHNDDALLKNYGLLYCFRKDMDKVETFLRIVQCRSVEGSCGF
hGH mutant Arg134→His (P01241, form named): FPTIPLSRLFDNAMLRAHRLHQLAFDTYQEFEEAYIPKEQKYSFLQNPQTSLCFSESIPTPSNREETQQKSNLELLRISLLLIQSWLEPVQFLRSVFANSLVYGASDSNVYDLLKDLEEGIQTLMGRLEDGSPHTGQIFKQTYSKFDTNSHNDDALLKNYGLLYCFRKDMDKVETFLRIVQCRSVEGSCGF

The substances below were run against T1, growth hormone receptor in microsomal liver membranes of a pregnant rabbit (rabbit) (UniProt P19941) (assay: in vitro receptor assay (Tsushima and Friesen method)).
T1 sequence (looked up): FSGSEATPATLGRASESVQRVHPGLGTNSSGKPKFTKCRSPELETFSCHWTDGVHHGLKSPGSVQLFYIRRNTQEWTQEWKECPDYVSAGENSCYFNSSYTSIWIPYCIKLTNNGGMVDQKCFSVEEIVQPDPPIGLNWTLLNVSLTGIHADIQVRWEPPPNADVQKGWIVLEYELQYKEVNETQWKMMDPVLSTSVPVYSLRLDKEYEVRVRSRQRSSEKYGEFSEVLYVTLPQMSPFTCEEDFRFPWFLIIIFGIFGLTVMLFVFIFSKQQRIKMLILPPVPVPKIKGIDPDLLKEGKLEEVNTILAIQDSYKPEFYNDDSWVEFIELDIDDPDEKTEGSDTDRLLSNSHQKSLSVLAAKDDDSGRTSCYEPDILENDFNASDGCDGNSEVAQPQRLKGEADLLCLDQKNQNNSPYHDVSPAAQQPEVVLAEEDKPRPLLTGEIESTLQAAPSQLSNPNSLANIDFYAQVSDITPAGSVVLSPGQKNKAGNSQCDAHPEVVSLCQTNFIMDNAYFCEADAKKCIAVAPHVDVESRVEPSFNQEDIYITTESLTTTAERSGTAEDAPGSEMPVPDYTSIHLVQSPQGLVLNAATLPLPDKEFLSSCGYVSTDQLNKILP

binding, binds:
hGH mutant Arg134→Leu (from UniProt P01241 27-217) (ligand)
hGH mutant Arg134→Ala (from UniProt P01241 27-217) (ligand)
hGH mutant Arg134→Thr (from UniProt P01241 27-217) (ligand)
hGH mutant Arg134→Pro (from UniProt P01241 27-217) (ligand)
hGH mutant Arg134→Phe (from UniProt P01241 27-217) (ligand)
hGH mutant Arg134→His (from UniProt P01241 27-217) (ligand)
